From PubChem BioAssay (NCATS)
This list was built around the results that the source calls inconclusive (neither active nor inactive); the mix of calls is not that of the screen. A potency beside an inconclusive call is a rough fit, not a confirmed value. Calls of active or inactive are those of the source. Calls come from the whole dose curve; as a rule, active = well fitted cell-killing curve with a large enough effect; inconclusive = small, poorly fitted or top-dose-only effect, or effect the other way; inactive = no such curve, though single readings can be large or run the other way.

assay: Quantitative High-Throughput drug screen in 47 multiple myeloma cell lines against the NCATS MIPE library collection: SKMM1_PLB cell viability assay (AID 1919863); conditions: SKMM1 myeloma viability, CellTiter-Glo ATP, 48 h; viability: active compounds read low; note: nearly all actives have a fitted effect of over 35% in size; for viability: series mostly up to about 46 µM
Procedure, shortened: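 Plated at 500 cells per well, myeloma lines received MIPE 4.0 compounds by pin tool. Following 48 h culture at 37 °C, CellTiter-Glo luminescence gave viability relative to DMSO and media-only controls.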
Potency is the fitted concentration of half-maximal effect.

Row | Compound | Potency | viability
1 | CC(C)C[C@H](NC(=O)c1cc2ccccc2s1)C(=O)N1CCN(C(=O)[C@H](CO)NS(=O)(=O)c2ccc(Cl)cc2Cl)CC1 | inconclusive: 37.2 µM [cytotoxic, single point] | 
2 | Cc1oc(=O)oc1CN1CCN(c2cc3c(cc2F)c(=O)c(C(=O)O)c2n3C(C)S2)CC1 (configuration not stated) | inconclusive: 23.5 µM [cytotoxic, single point] | 
3 | NCc1c[nH]c(=S)n1[C@H]1CCc2c(F)cc(F)cc2C1 | inconclusive: 18.7 µM [cytotoxic, partial curve, poor fit] | 
4 | COc1cc(CNC(=O)CCCCC=CC(C)C)ccc1O |  | inactive: 120%
5 | Nc1cccc(S(=O)(=O)N2CCCN(S(=O)(=O)c3ccc4c(c3)OCCO4)CC2)c1 |  | inactive: 103%
6 | CCn1c(-c2nonc2N)nc2c(C#CC(C)(C)O)ncc(OC[C@H]3CCCNC3)c21 | inconclusive: 20.9 µM [cytotoxic, partial curve] | 
7 | COc1cc2c(c(OC)c1OC)-c1ccc(OC)c(=O)cc1[C@@H](NC(C)=O)CC2 | inconclusive: 0.0132 µM [cytotoxic, partial curve, poor fit] | 
8 | CCC(=O)N1CCN(c2ccc(-n3c(=O)ccc4cnc5ccc(-c6cnc7ccccc7c6)cc5c43)cc2C(F)(F)F)CC1 | active: 0.0148 µM | 
9 | CCn1c(=O)c2c(nc(C=Cc3ccc(OC)c(OC)c3)n2C)n(CC)c1=O |  | inactive: 123%
10 | N#CC(c1ccc(Cl)cc1)c1c(Cl)cc(-n2ncc(=O)[nH]c2=O)cc1Cl (configuration not stated) | inconclusive: 1.18 µM [cytotoxic, full curve, poor fit] | 
11 | Cc1ccc2c(=O)c3cccc(CC(=O)O)c3oc2c1C | inconclusive: 20.9 µM [cytotoxic, partial curve, poor fit] | 
12 | CN(C)CCN(Cc1ccc(Cl)cc1)c1ccccn1 | inconclusive: 0.0105 µM [rising, full curve, poor fit] | 
13 | COc1ccc2[nH]cc(CCNC(C)=O)c2c1 |  | inactive: 123%
14 | CN1c2ccccc2C(=O)N2CCc3c([nH]c4ccccc34)C21 (configuration not stated) |  | inactive: 100%
15 | CC(=O)N1CCN(c2ccc(OC[C@H]3CO[C@](Cn4ccnc4)(c4ccc(Cl)cc4Cl)O3)cc2)CC1 | inconclusive: 7.43 µM [cytotoxic, full curve, poor fit] | 
16 | CCN(C)C(=O)Oc1cccc([C@H](C)N(C)C)c1 | inconclusive: 0.0019 µM [cytotoxic, full curve, poor fit] | 
17 | CCN(CCO)CCCOc1ccc2c(Nc3cc(CC(=O)Nc4cccc(F)c4)[nH]n3)ncnc2c1 |  | inactive: 116%
18 | N#CC(=C(O)c1ccc(Cl)cc1Cl)c1nc2cc(Cl)ccc2c(=O)[nH]1 | inconclusive: 3.72 µM [cytotoxic, full curve, poor fit] | 
19 | CCCCOCCOc1nc(-c2ccc(C(=O)O)c(F)c2)sc1C |  | inactive: 118%
20 | CNC(=O)c1cc(Oc2ccc(NC(=O)Nc3ccc(Cl)c(C(F)(F)F)c3)cc2)ccn1 | active: 29.6 µM | 
21 | CC(c1cc2ccccc2s1)N(O)C(N)=O (configuration not stated) |  | inactive: 118%
22 | CC(NCCc1ccc(O)cc1)C(O)c1ccc(O)cc1 (configuration not stated) |  | inactive: 131%
23 | Cn1c(=O)c2c(ncn2CC(O)CO)n(C)c1=O (configuration not stated) | inconclusive: 0.0053 µM [rising, full curve, poor fit] | 
24 | CC(C)(C)OC(=O)Nc1ccc(-c2cc(C(=O)NCCCCCCC(=O)NO)no2)cc1 | active: 2.09 µM | 
25 | CON=C(C(=O)N[C@@H]1C(=O)N2C(C(=O)O)=C(Cn3ccc(=N)n3CCO)CS[C@H]12)c1csc(N)n1 |  | inactive: 112%
26 | O=C(O)CCc1ccc(NCc2cccc(Oc3ccccc3)c2)cc1 |  | inactive: 111%
27 | Cn1cc(-c2ccncc2)c(-c2ccc(OCc3ccc4ccccc4n3)cc2)n1 | inconclusive: 16.6 µM [cytotoxic, partial curve] | 

Looked up by compound from the list above, 2 records:
Row | Compound | Potency | viability
14 | CN1c2ccccc2C(=O)N2CCc3c([nH]c4ccccc34)C21 (configuration not stated) |  | inactive: 100%
13 | COc1ccc2[nH]cc(CCNC(C)=O)c2c1 |  | inactive: 123%
